## Microarray screen: hit calls

Data from the ROBIN nucleic acid binder screens, doi:10.1002/anie.202211358.

Targets (5′ to 3′):
T1: PreQ1 riboswitch RNA pseudoknot, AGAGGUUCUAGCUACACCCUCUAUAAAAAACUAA. From B. subtilis. Hit rate about 0.7% of about 24,000 compounds.
T2: SAM-II riboswitch RNA pseudoknot, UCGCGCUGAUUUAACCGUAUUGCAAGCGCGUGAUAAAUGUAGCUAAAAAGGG. Hit rate about 1% of about 21,000 compounds.
T3: TPP riboswitch RNA three-way junction, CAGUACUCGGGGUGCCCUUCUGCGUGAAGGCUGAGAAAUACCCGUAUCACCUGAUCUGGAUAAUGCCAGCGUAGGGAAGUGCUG. Hit rate about 0.7% of about 24,000 compounds.

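The test is a small-molecule microarray: each compound is printed twice on a reactive slide, and binding shows as fluorescence of the labelled oligonucleotide after washing. The data file lists only calls. An earlier report of the laboratory on the PreQ1, TPP and SAM-II riboswitches (doi:10.1038/s41467-019-09493-3) used 1 µM RNA for 2 h and required a mean Z-score above 3 (spot signal-to-noise against the whole library), a score well above that on a control array, and duplicate spots agreeing (coefficient of variation under 100); it then also set aside compounds that hit other targets, which this list keeps. The cut-offs behind this list may differ. These are primary screening calls, not affinities; a compound without a hit may have attached poorly or may still bind in solution.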
Key: yes = hit, no = tested without a hit.
The compounds are a random part of those screened.
A target missing from an entry has no call listed here.
A dash means that no call is listed here.

| # | structure | T1 | T2 | T3 |
|---|---|---|---|---|
| 1 | `OCCn1ccnc1-c1cccc(-c2ccco2)c1` | no | no | no |
| 2 | `CC(C)c1ccc(C2C(C#N)=C(N)OC3=C2C(=O)CC(C)(C)C3)cc1` (centres undefined) | no | no | no |
| 3 | `Nc1ncc(-c2c(-c3ccccc3)ncn2CCc2cccs2)cn1` | no | no | no |
| 4 | `NC(=O)C1=C(Nc2ccccc2F)c2ccccc2S1(=O)=O` | no | - | no |
| 5 | `Nc1cccc(C(=O)C=Cc2ccc(Cl)cc2Cl)c1` | no | yes | no |
| 6 | `CSCCC(O)c1nc(-c2ccncc2)nn1CCO` (centres undefined) | no | no | no |
| 7 | `Cc1nc2nc(-c3ccccc3Cl)nn2c(C)c1CC(=O)N(C)CCO` | no | - | no |
| 8 | `O=C(O)c1ccc(-c2c[nH]c3ncc(-c4ccccc4)cc23)cc1C1CCCC1` | no | no | no |
| 9 | `CC1(C)CC(CCNCC2CCCO2)(c2cccc(C(F)(F)F)c2)CCO1` (centres undefined) | no | - | no |
| 10 | `Cc1ccccc1NC1c2ccccc2C(=O)N1Cc1ccc2c(c1)OCO2` (centres undefined) | no | no | no |
| 11 | `COCCNc1cc(-c2cnc(N)cn2)c2cc[nH]c2n1` | no | no | no |
| 12 | `COc1ccc(-c2csc(N3CCNCC3)n2)cc1OC` | no | no | no |
| 13 | `CNCC[C@H](Oc1cccc2ccccc12)c1cccs1` | no | no | no |
| 14 | `CS(=O)(=O)c1ccc2nc(N)sc2c1` | no | no | no |
| 15 | `C=CCNc1cc(CCC)nc2nc(-c3cccnc3)nn12` | no | - | no |
| 16 | `Cc1cccc(-c2[nH]ncc2-c2ccc3ncccc3n2)n1` | no | no | no |
| 17 | `NCCOc1ccc2c(c1)OCO2` | no | no | no |
| 18 | `NCCn1cc(C(=O)NCCCN2Cc3ccccc3C2)nn1` | no | no | no |
| 19 | `Cc1ccc(N2CCN(CC(O)COc3cccc(C)c3)CC2)cc1` (centres undefined) | no | no | no |
| 20 | `O=C(Nc1ccc2c(c1)OC(F)(F)O2)c1ccccc1C1CCNC1` (centres undefined) | no | no | no |
| 21 | `Cc1n[nH]c(C)c1-c1c(C)c(-c2cnn(C)c2)nc(N)c1C#N` | no | no | no |
| 22 | `COc1cccc(C(=O)N2c3ccccc3C(Nc3ccccc3)CC2C)c1` (centres undefined) | no | no | no |
| 23 | `CCn1c(-c2nonc2N)nc2cncc(CNC3CCNCC3)c21` | no | no | no |
| 24 | `Cn1c(CN2CC[C@@H](NC(=O)c3cccnc3)[C@H](O)C2)nc2ccccc21` | no | no | no |
| 25 | `Cc1ccc(N2C(=O)C(=CN)C(=O)N(c3ccc(C)cc3)C2=O)cc1` | no | no | no |
| 26 | `COc1ccc2occ(C(=O)c3oc4ccc(Cl)cc4c3N)c2c1` | no | no | no |
| 27 | `CCOc1ccc2c(c1)C(=C1SC(C(C)=O)=C(c3ccccc3)S1)C(=S)C(C)(C)N2` | no | no | no |
| 28 | `Cc1ccc2cc3c(N)nn(C(=O)c4cccc(Cl)c4)c3nc2c1` | no | no | no |
| 29 | `CC1CCN(S(=O)(=O)c2ccc(-c3nc(C#N)c(NC4CCCCC4)o3)cc2)CC1` | no | - | no |
| 30 | `COc1ccc(CN2CC[C@H](N3CCN(C)CC3)[C@H](CCCO)C2)c(C)c1` | no | no | no |
| 31 | `NC(=O)c1cc(Br)cc(C2CCCCC2)c1O` | no | no | no |
| 32 | `OCCNc1nc(N2CCOCC2)nc(N2CCOCC2)n1` | no | no | no |
| 33 | `CCCc1ccc(OCc2nc(-c3nonc3N)no2)cc1` | no | no | no |
| 34 | `C=CCNC1(c2ccccc2)CCCCC1.Cl` | no | no | no |
| 35 | `Nc1ccc(C(=O)CC2(O)C(=O)N(Cc3ccccc3)c3ccccc32)cc1` (centres undefined) | no | no | no |
| 36 | `Nc1nc(CCC(=O)N2CCOC(c3ccc(Cl)cc3)C2)cs1` (centres undefined) | no | no | no |
| 37 | `O=c1[nH]nc(CCCO)n1-c1ccccc1-c1ccccc1` | no | no | no |
| 38 | `COc1cccc([C@H]2C[C@@H](C(F)(F)F)n3ncc(C(=O)Nc4cccc(C(C)O)c4)c3N2)c1` (some centres undefined) | no | no | no |
| 39 | `CC(=O)OCCN1c2ccccc2Sc2cnccc21` | no | no | no |
| 40 | `CCC(N)Cc1c[nH]c2ccccc12` (centres undefined) | no | no | no |
| 41 | `CC(C)(C)c1ccc(Cn2c(-c3nonc3N)nc3ccccc32)cc1` | no | no | no |
| 42 | `Cc1ccn2c(Nc3ccc4c(c3)OCO4)c(-c3ccc(O)cc3)nc2c1` | no | no | no |
| 43 | `CCc1ccc2oc(-c3ccc(N)cc3O)nc2c1` | yes | no | no |
| 44 | `COc1ccc(NC(C)=O)cc1NC(=O)N1C[C@H]2C[C@H](O)[C@H](O)C[C@H]2C1` | no | no | no |
| 45 | `CCn1nc(CO)c2c1CCN(C(=O)c1cnc(-c3cccnc3)nc1)C2` | no | no | no |
| 46 | `COc1ccc(C2C(C#N)=C(N)OC3=C2C(=O)CCC3)cc1OC` (centres undefined) | no | no | no |
| 47 | `O=C(CC(c1ccccc1)c1ccccc1Cl)N1CC(O)C1` (centres undefined) | no | no | no |
| 48 | `COc1cc(Cl)c(CC(=O)c2c[nH]c3ccccc23)cc1OC` | no | no | no |
| 49 | `Cn1c(=O)c2c(nc(Sc3ccccc3N)n2C)n(C)c1=O` | no | no | no |
| 50 | `CCOC(=O)c1c(N)sc(C(=O)Nc2ccccc2)c1C` | no | no | no |
| 51 | `COc1ccc2[nH]c(CNCc3cnc(-c4ccccc4C)s3)cc2c1` | no | no | no |
| 52 | `CC(C)(C)c1cc(CN2CCOCC2CC(=O)Nc2cccc(CO)c2)n[nH]1` (centres undefined) | no | no | no |
| 53 | `CCc1c(C)nn(C)c1NC(=O)N(CCO)Cc1ccccc1` | no | no | no |
| 54 | `COc1ccc(F)c(CNC(=O)c2ccc3[nH]c(CO)nc3c2)c1F` | no | no | no |
| 55 | `OC1CCN(Cc2cc3cc4c(cc3nc2-c2cccs2)CCC4)CC1` | no | no | no |
| 56 | `CSc1nc(C)cc(Nc2ccc(Cl)cc2)n1` | no | - | no |
| 57 | `Nc1ccc(-c2nc(CN3CCOCC3)cs2)cc1` | no | no | no |
| 58 | `Nc1c(-c2cccc(C(F)(F)F)c2)cnn1C(=O)c1ccc(Cl)cc1` | no | no | no |
| 59 | `Cc1cccc(-n2c(CCCO)nc3ccccc32)c1` | no | no | no |
| 60 | `COc1ccc(CCNC(=O)CCc2c(C)nc3nc(CN)nn3c2C)cc1OC` | no | - | no |
| 61 | `Cc1cn2cc(CCN)nc2s1` | no | no | no |
| 62 | `COc1ccc(-c2ccc(CNCC(C)O)o2)cc1Cl` (centres undefined) | no | no | no |
| 63 | `CC1(C)OC2C(CO)OC(n3cnc4c(=S)nc[nH]c43)C2O1` (centres undefined) | no | no | no |
| 64 | `Fc1ccc(Nc2nc3ccc(Cl)cc3n3cnnc23)c(F)c1` | no | - | no |
| 65 | `Cc1ccc(CNC(=O)c2nn(-c3ccccc3)nc2CO)cc1` | no | - | no |
| 66 | `CCOc1cc(CNCC2CCCN2CC)cc(Cl)c1OCC(N)=O.Cl.Cl` (centres undefined) | no | no | no |
| 67 | `CCOC(=O)N1CCN(CC(O)COc2ccc(C(C)C)c(C)c2)CC1` (centres undefined) | no | no | no |
| 68 | `CC[C@@]1(O)CCN(C(=O)c2ccccc2N2CCS(=O)(=O)CC2)C[C@H]1O` | no | no | no |
| 69 | `COc1ccc(C(CCNCc2ccccc2)C2CCOC(C)(C)C2)cc1` (centres undefined) | no | no | no |
| 70 | `CC(=O)N[C@H]1CCN(C(=O)c2cccc(CC3CCNCC3)c2)C1` | no | no | no |
| 71 | `Cc1c(S(=O)(=O)c2ccccc2)c(N)n(CCCN(C)C)c1C` | no | no | no |
| 72 | `CN1N=C(C(=O)N2CCC(Cc3cccc(CO)c3)C2)CCC1=O` (centres undefined) | no | no | no |
| 73 | `CC(C)c1cc(Nc2cccc(F)c2)n2nc(-c3cccnc3)nc2n1` | no | - | no |
| 74 | `Cn1c(CNc2ccc(S(N)(=O)=O)cc2)nc2ccccc21` | no | no | no |
| 75 | `CC(C)(C)n1cnc2cc(NCc3cccc4ccccc34)ccc21` | no | no | no |
| 76 | `Cc1ccc(N(CC(O)CN(Cc2ccccc2)Cc2ccccc2)S(=O)(=O)c2ccc([N+](=O)[O-])cc2)cc1` (centres undefined) | no | no | no |

Some entries from above, unchanged:

{"structure": "COc1cccc([C@H]2C[C@@H](C(F)(F)F)n3ncc(C(=O)Nc4cccc(C(C)O)c4)c3N2)c1", "stereo": "some centres undefined", "T1": "no", "T2": "no", "T3": "no"}
{"structure": "Nc1ccc(C(=O)CC2(O)C(=O)N(Cc3ccccc3)c3ccccc32)cc1", "stereo": "centres undefined", "T1": "no", "T2": "no", "T3": "no"}
{"structure": "Cc1ccc(N2CCN(CC(O)COc3cccc(C)c3)CC2)cc1", "stereo": "centres undefined", "T1": "no", "T2": "no", "T3": "no"}
{"structure": "CC1(C)CC(CCNCC2CCCO2)(c2cccc(C(F)(F)F)c2)CCO1", "stereo": "centres undefined", "T1": "no", "T3": "no"}
{"structure": "C=CCNc1cc(CCC)nc2nc(-c3cccnc3)nn12", "T1": "no", "T3": "no"}